Patent EP3837551B1 (Medizinische Hochschule Hannover, dated 2024)
No constants are given. Whether binding was seen depends on the method and setting. Some binding calls cover weakened binding; strength is not graded here.

Chains of the proteins cited; added tags and fusions are not shown. Lines headed by an entry give the natural chain unless they say otherwise; changes in a name come on top.
UniProt P01024: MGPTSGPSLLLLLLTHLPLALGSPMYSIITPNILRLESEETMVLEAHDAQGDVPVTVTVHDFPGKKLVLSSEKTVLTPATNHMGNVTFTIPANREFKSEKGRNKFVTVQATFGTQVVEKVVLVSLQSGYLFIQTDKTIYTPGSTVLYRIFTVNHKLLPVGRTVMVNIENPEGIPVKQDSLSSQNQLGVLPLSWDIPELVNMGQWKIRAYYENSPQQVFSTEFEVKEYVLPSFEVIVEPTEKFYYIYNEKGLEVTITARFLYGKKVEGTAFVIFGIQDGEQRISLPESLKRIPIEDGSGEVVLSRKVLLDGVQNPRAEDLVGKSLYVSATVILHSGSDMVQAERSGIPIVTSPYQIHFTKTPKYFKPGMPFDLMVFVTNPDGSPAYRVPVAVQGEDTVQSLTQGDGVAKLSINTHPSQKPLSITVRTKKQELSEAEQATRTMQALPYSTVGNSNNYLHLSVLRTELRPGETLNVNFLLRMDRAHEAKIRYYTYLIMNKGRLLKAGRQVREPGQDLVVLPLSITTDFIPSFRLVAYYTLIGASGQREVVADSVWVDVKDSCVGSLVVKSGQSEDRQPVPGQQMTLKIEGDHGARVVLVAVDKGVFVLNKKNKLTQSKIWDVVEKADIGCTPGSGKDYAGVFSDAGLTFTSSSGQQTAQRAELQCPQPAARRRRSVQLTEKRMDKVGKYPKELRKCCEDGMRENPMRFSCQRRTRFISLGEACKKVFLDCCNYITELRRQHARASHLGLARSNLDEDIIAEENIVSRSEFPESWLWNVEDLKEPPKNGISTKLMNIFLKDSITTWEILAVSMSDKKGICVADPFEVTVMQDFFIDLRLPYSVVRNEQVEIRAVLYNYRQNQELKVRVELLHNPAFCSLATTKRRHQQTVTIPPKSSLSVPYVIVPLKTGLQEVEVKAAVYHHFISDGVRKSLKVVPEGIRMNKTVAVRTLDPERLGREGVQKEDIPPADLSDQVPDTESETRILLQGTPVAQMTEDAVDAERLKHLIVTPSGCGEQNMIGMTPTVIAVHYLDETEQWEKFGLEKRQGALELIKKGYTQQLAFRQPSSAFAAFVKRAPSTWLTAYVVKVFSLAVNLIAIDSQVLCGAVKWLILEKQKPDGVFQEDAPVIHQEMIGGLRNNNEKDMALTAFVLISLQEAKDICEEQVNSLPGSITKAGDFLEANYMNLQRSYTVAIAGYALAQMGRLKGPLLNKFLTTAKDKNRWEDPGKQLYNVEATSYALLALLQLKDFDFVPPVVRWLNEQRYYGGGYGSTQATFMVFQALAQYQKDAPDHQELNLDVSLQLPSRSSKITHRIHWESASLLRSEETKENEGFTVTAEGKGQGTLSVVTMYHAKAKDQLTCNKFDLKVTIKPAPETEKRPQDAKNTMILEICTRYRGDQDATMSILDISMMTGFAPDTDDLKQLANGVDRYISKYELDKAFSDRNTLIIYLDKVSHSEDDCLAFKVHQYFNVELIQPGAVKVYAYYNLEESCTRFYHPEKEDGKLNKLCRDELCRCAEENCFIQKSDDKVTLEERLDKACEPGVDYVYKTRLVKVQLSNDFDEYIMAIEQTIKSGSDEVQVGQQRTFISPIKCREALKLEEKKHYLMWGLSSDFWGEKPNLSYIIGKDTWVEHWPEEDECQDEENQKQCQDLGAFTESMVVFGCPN

Key:
[1] = molecular target: C3b (UniProt P01024); test: C3b coated at 5 ug/mL, FHR1 at 10 ug/mL for 2 h, washed, then monocytes added
[2] = molecular target: C3b (UniProt P01024); test: C3b coated at 5 ug/mL, FHR1 at 10 ug/mL (Figure 3d)

binding [1]: binds
binding [2]: binds
B1: Recombinant factor H related protein 1 (FHR1), expressed in Pichia pastoris (other, human, UniProt Q03591 19-330, looked up)
chain: EATFCDFPKINHGILYDEEKYKPFSQVPTGEVFYYSCEYNFVSPSKSFWTRITCTEEGWSPTPKCLRLCFFPFVENGHSESSGQTHLEGDTVQIICNTGYRLQNNENNISCVERGWSTPPKCRSTDTSCVNPPTVQNAHILSRQMSKYPSGERVRYECRSPYEMFGDEEVMCLNGNWTEPPQCKDSTGKCGPPPPIDNGDITSFPLSVYAPASSVEYQCQNLYQLEGNKRITCRNGQWSEPPKCLHPCVISREIMENYNIALRWTAKQKLYLRTGESAEFVCKRGYRLSSRSHTLRTTCWDGKLEYPTCAKR
notes: also called CFHR1; Complement Factor H-Related Protein 1
